Reference: PubChem BioAssay AID1259308 (NCATS, 2017)
The deposit covers about 59,000 reagents; shown is a random part of them. In the full data, about 1,510 (2.6%) are marked active. 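Calls use total luciferase alone and ignore viability, so some active siRNAs may act by altering cell number.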 A number with no mark means an inactive call. Further read-outs or replicates are left out here.

Test: 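Knock-downs that increase output of a recombinant reporter protein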 (primary screen)
Cell system: human HEK293 embryonic kidney cells stably expressing firefly luciferase (HEK-CMV-Luc2-Hygro)
Reagent: single siRNA against human genes, 0.8 pmol siRNA per well
Duration: 72 h
Read-out: 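Reporter luminescence and viable-cell signal on separate replicate plates, given as percent of non-targeting control and median/MAD z-scores, plus per-cell luciferase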
Reading the numbers: total luciferase, z-score: higher = more reporter protein produced
Active means: 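An siRNA counts as active if its total luciferase robust z-score exceeds 3; genes with two or more such siRNAs out of three were retested with fresh siRNAs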
Calls: active = raised luciferase; inactive = no rise

total luciferase, z-score, by gene and reagent
ABI1 (abl interactor 1): SID160723786 2.11; SID160723795 0.664; SID160723804 -1.17
KRTAP6-3 (keratin associated protein 6-3): SID160763989 2.17; SID160763992 -0.662; SID160763993 -2.46
SCARB1 (scavenger receptor class B member 1): SID160739059 -0.815; SID160739068 -0.241; SID160739080 -0.773
POU2F3-AS1 (POU2F3 antisense RNA 1): SID160770373 -0.274; SID160770374 0.0804; SID160770375 -0.895
MAPRE2 (microtubule associated protein RP/EB family member 2): SID160729674 0.313; SID160729675 -0.192; SID160732309 1.32
ATM (ATM serine/threonine kinase): SID160721164 0.116; SID160721174 1.92; SID160721186 -0.491
BEND7 (BEN domain containing 7): SID160761846 2.2; SID160761847 -0.34; SID160761848 -0.273
ZYG11A (zyg-11 family member A, cell cycle regulator): SID160767823 0.156; SID160767824 3.1 (active); SID160767825 0.19
PGLYRP1 (peptidoglycan recognition protein 1): SID160721246 0.117; SID160721247 0.0241; SID160724204 -0.593
FXYD1 (FXYD domain containing ion transport regulator 1): SID160714480 2.97; SID160731431 0.916; SID160731433 -1.25
FBXO48 (F-box protein 48): SID160768348 1.76; SID160768349 0.23; SID160768350 0.911
SLC4A10: SID160745872 -1.21; SID160745873 -0.242; SID160745875 -0.507
TSPYL1 (TSPY like 1): SID160718401 0.15; SID160718402 2.35; SID160718403 -0.291
IFIT1B (interferon induced protein with tetratricopeptide repeats 1B): SID160767659 1.8; SID160767660 1.85; SID160767661 1.92
CLDN14 (claudin 14): SID160736573 -0.441; SID160736574 -0.231; SID160736575 2.65
IGBP1C (IGBP1 family member C): SID160733939 0.581; SID160769599 2.25; SID160769600 -1.01
OR10R2 (olfactory receptor family 10 subfamily R member 2): SID160764708 1.84; SID160764709 -0.101; SID160764710 -0.364
S100A1 (S100 calcium binding protein A1): SID160716276 1.53; SID160716277 -2.11; SID160724055 0.609
RAD54L2 (RAD54 like 2): SID160735525 2.84; SID160735526 0.293; SID160735527 -0.51
LRP5 (LDL receptor related protein 5): SID160776736 1.04; SID160776737 1.81; SID160776738 0.97
FCRL1 (Fc receptor like 1): SID160755187 -0.843; SID160755188 -0.657; SID160755189 0.643
EDC3 (enhancer of mRNA decapping 3): SID160750122 -0.476; SID160750123 -1.84; SID160750125 -0.154
PNPLA6 (patatin like domain 6, lysophospholipase): SID160729489 0.39; SID160729490 2.94; SID160729491 2.82
SASS6 (SAS-6 centriolar assembly protein): SID160732607 -1.5; SID160760076 -0.706; SID160760077 -0.621
AP2M1 (adaptor related protein complex 2 subunit mu 1): SID160743946 0.505; SID160743957 1.43; SID160743968 5.04 (active)

Records above called active (2):
total luciferase, z-score, by gene and reagent
ZYG11A (zyg-11 family member A, cell cycle regulator): SID160767824 3.1 (active)
AP2M1 (adaptor related protein complex 2 subunit mu 1): SID160743968 5.04 (active)
